Experiment: in vitro
Details: human, hepg2 cells, TC50 (µM) Hepatic stage (rodent) P. yoelii
Method: A preliminary screening was performed consisting in the infection of human CD81 transfected hepatocarcinome cell line HepG2 (HepG2/CD81) with P. yoelii. IC50 (inhibiting concentration 50), TC50 (toxic concentration 50) and TI (therapeutic index, ratio TC50/IC50) were estimated for each drug tested. Selected molecules (small IC50, high TC50 and high TI) were analyzed in human hepatocytes. Briefly, HepG2 cells were plated in 96-well plates for 24 h prior to inoculation with 1x10^4 of P. yoelii sporozoites. Sporozoites-inoculated culture plates were centrifuged for 5 min at 1,500 rpm at 4°C in order to enhance the infection rate as described by Gruner (Gruner et al., 2005). After 3h at 37°C, the cultures were washed and further incubated in fresh medium for 48 h (P. yoelii) before quantification of infected cells in triplicate wells.
Toxicity was determined by using the colorimetric 3-(4,5-dimethylthiazol-2-yl)-2,5-diphenyltetrazolium bromide (MTT) assay (Mosman., 1983). Briefly, HepG2 cells cultures were prepared in 96-well plates as described above. Drugs were tested in triplicate wells at eight concentrations ranging from 6.4 × 10^-3 µM to 200 µM. […] The plates were read in an enzyme-linked immunosorbent assay plate reader (550-nm absorbance wavelength and 620-nm reference wavelength). The results were expressed as the percent change in viability compared to drug-free control cultures. […]

| SMILES | CC50 |
| --- | --- |
| C/C=C/c1cc(OC)c(O[C@H](C)[C@@H](O)c2cc(OC)c(OC)c(OC)c2)c(OC)c1 (relative stereo) [Polysphorin anti, reference compound] | 91.7 µM |
| C/C=C/c1cc(OC)c(O[C@@H](C)[C@@H](O)c2cc(OC)c(OC)c(OC)c2)c(OC)c1 (relative stereo) [Polysphorin syn, reference compound] | 96.5 µM |
